Some results were stated once for a whole list of compounds, not compound by compound.
Assay: Pharmacokinetics of intravesical PTX and DTX formulations
Format: in vivo, mice
Conditions: following intravesical instillation

Row | SMILES | serum levels [ng/mL]
1 | CC(=O)O[C@@]12CO[C@@H]1C[C@H](O)[C@@]1(C)C(=O)[C@H](O)C3=C(C)[C@@H](OC(=O)[C@H](O)[C@@H](NC(=O)OC(C)(C)C)c4ccccc4)C[C@@](O)([C@@H](OC(=O)c4ccccc4)[C@H]21)C3(C)C [DTX, docetaxel] | 5 to 20
2 | CC(=O)O[C@H]1C(=O)[C@@]2(C)[C@H]([C@H](OC(=O)c3ccccc3)[C@]3(O)C[C@H](OC(=O)[C@H](O)[C@@H](NC(=O)c4ccccc4)c4ccccc4)C(C)=C1C3(C)C)[C@]1(OC(C)=O)CO[C@@H]1C[C@@H]2O [PTX, paclitaxel] | 5 to 20

— patent publication US9561278B2, “Derivatized hyperbranched polyglycerols” (THE UNIVERSITY OF BRITISH COLUMBIA, priority 2010, dated 2017)
